Consider three molecules from US20180078615A1, “USE OF CCL2 TO INHIBIT ABNORMAL UTERINE BLEEDING” (UNIVERSITY OF SOUTH FLORIDA, priority 2015, published 2018).

This data set has as its system VSMCs. The data set is described as follows: Whole genome microarray analysis (Illumina HumanHT-12 v4) of cultured VSMCs treated with progestins. The class given is cell-based, human. To be noted: for genes regulated solely by this progestin / Down-regulated genes / Total regulated genes / Up-related genes: number of genes; for genes regulated solely by this progestin: Venn diagram of MPA, ETO, P4; for Down-regulated genes / Total regulated genes / Up-related genes: 10^−7 M, fold-change >1.25 and P<0.05. An excerpt: Cultured VSMCs (n=3) treated with control medium or medium containing medroxyprogesterone acetate (MPA, 10^−7 M), or etonogestrel (ETO, 10^−7 M) were processed for whole genome analyses using Illumina Human microarray kit. After qRT-PCR confirmation of several up and down regulated genes from microarray data, Ingenuity Pathway Analysis (IPA) determined relevant upstream signaling of LAPC altered gene expression. To investigate the role of genes and relevant signaling molecules identified by IPA, VSMCs (n=3) treated with MPA or ETO±1 or 10 ng/ml recombinant CCL2 (rCCL2)±STAT1 inhibitor, 5′-methyl-thioadenosine (MTA, 100 μM) were analyzed by BrdU incorporation proliferation, TUNEL based ELISA apoptosis and Transwell insert migration assays.
VSMCs were thawed and cultured in medium 231 (M231; Life Technologies) with smooth muscle growth supplement (5% FBS; 2 ng/mL human basic fibroblast growth factor, 0.5 ng/mL human epidermal growth factor, 5 ng/mL heparin, 0.2 μg/mL insulin and 5 μg/mL BSA; Life Technologies) with 100 U/mL penicillin, 100 μg/mL streptomycin, 0.25 μg/mL fungizone. Confluent VSMCs were washed twice with 1×PBS to remove residual serum, passaged in 96-well or 6-well plates and incubated in parallel in M231 with 1% charcoal striped FBS with 0.1% ethanol (vehicle, control) or 10^−7 M MPA (Sigma-Aldrich) or 10^−7 M ETO (Organon) or 10^−7 M P4 (Sigma-Aldrich) for 15 min, 6, 48, and 72 h. VSMCs were then washed with ice-cold PBS and stored at −80° C. for further RNA and protein analyses.
Total RNA was isolated using Qiagen miRNeasy Mini Kit (Qiagen) and RNeasy MinElute Cleanup Kit (Qiagen). The quality of isolated RNAs was confirmed using an Agilent 2100 Bioanalyzer. Microarray analysis was limited to those specimens in which RNA Integrity Number exceeded 8. Microarray processes were performed in the Keck Biotechnology Resource Laboratory at Yale University (New Haven, Conn.) using Illumina Human HT-12 v4 BeadChip (Illumina). Raw data without normalization were analyzed by GeneSpring GX12.5 software (Agilent Technologies-Silicon Genetics). Normalization was performed as described (35). Genes with a fold-change >1.25 and a P value<0.05 were considered differentially expressed. Ingenuity Pathway Analysis (IPA) software (Qiagen) explored molecular and biological networks related to differentially expressed genes.

SMILES strings stand for the structures.

For the molecule `C#C[C@]1(O)CC[C@H]2[C@@H]3CCC4=CC(=O)CC[C@@H]4[C@H]3C(=C)C[C@@]21CC` [ETO, etonogestrel], the “genes regulated solely by this progestin” value was 13. Further, under “cultured VSMCs”, the “ETO-regulated genes also regulated by MPA (same directional change)” value was determined as 92%; the “ETO-regulated genes also regulated by MPA (same directional change), number” value was 175; the “share of differentially regulated genes that are down-regulated” value is 57%; the “share of differentially regulated genes that are up-regulated” value was 43%. For the same molecule, for the setting “cultured VSMCs”, the Down-regulated genes is recorded as 109, the Total regulated genes is recorded as 191 and the Up-related genes was 82.
On to `CC(=O)O[C@]1(C(C)=O)CC[C@H]2[C@@H]3C[C@H](C)C4=CC(=O)CC[C@]4(C)[C@H]3CC[C@@]21C` [MPA, medroxyprogesterone acetate], for which the “genes regulated solely by this progestin” value was determined as 612. Where the note is “cultured VSMCs”, the “share of differentially regulated genes that are down-regulated” value is recorded as 51%, the “share of differentially regulated genes that are up-regulated” value worked out at 49%, the Down-regulated genes was determined as 401 and the Total regulated genes was 793. Besides, the Up-related genes (cultured VSMCs) is given as 392.
As for `CC(=O)[C@H]1CC[C@H]2[C@@H]3CCC4=CC(=O)CC[C@]4(C)[C@H]3CC[C@]12C` [P4, progesterone], the “genes regulated solely by this progestin” value turned out to be 16. Further, where the note is “cultured VSMCs”, the “share of differentially regulated genes that are down-regulated” value is 55%, the “share of differentially regulated genes that are up-regulated” value is 45%, the Down-regulated genes is on record as 22 and the Total regulated genes amounted to 40. Where the note is “cultured VSMCs”, the Up-related genes worked out at 18.
